{"source": "PubChem BioAssay AID1259298 (Sanger Institute, 2017)", "aim": "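Kinase knock-downs that cut colorectal cancer cell viability or act with targeted drugs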 (primary screen)", "cell system": "HT55 human colorectal cancer cell line", "reagents": "siRNA pool against human genes", "conditions": "anchor drug BYL719 1 µM, cetuximab 5 µg/ml or trametinib 10 nM, or DMSO vehicle alone", "detection": "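Mean viability over replicates versus non-targeting pool, a robust z-score without drug, and per-drug synergy scores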", "scale": "robust z-score, knock-down alone: higher = more cells remaining; low means essential gene; viability vs control pool, no drug: higher = more viable cells", "units": "viability vs control pool, no drug in fraction", "rule for the call": "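Essential when the robust z-score for knock-down alone with DMSO is below -3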", "calls": "active = essential (knock-down alone); inactive = no change alone", "note": "In all, the deposit lists 794 reagents; this is a part drawn at random. In the full data, 20 (2.5%) are marked active. 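Calls rest only on the knock-down-alone score; drug synergy scores played no part in them.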 No viability above 1 is reported: the scale is capped. Further read-outs or replicates are left out here. The record does not give: the amount of reagent, the time to read-out."}
{"target": "DAPK1", "robust z-score, knock-down alone": 0.438, "viability vs control pool, no drug": 0.989, "Outcome": "inactive"}
{"target": "MAP3K21", "robust z-score, knock-down alone": 0.58, "viability vs control pool, no drug": 1, "Outcome": "inactive"}
{"target": "CDK17", "robust z-score, knock-down alone": 0.58, "viability vs control pool, no drug": 1, "Outcome": "inactive"}
{"target": "ANKK1", "robust z-score, knock-down alone": -0.854, "viability vs control pool, no drug": 0.888, "Outcome": "inactive"}
{"target": "GUCY2C", "robust z-score, knock-down alone": 0.134, "viability vs control pool, no drug": 0.965, "Outcome": "inactive"}
{"target": "SMC1A", "robust z-score, knock-down alone": -0.23, "viability vs control pool, no drug": 0.937, "Outcome": "inactive"}
{"target": "CERK", "robust z-score, knock-down alone": 0.58, "viability vs control pool, no drug": 1, "Outcome": "inactive"}
{"target": "MAPKAPK2", "robust z-score, knock-down alone": -3.71, "viability vs control pool, no drug": 0.665, "Outcome": "active"}

Called active, of those listed so far:
{"target": "MAPKAPK2", "robust z-score, knock-down alone": -3.71, "viability vs control pool, no drug": 0.665, "Outcome": "active"}

Next reagents follow.
{"target": "NRK", "robust z-score, knock-down alone": 0.58, "viability vs control pool, no drug": 1, "Outcome": "inactive"}
{"target": "RPS6KA4", "robust z-score, knock-down alone": -0.112, "viability vs control pool, no drug": 0.946, "Outcome": "inactive"}
{"target": "SMG1", "robust z-score, knock-down alone": -2.11, "viability vs control pool, no drug": 0.79, "Outcome": "inactive"}
{"target": "CKS1B", "robust z-score, knock-down alone": 0.58, "viability vs control pool, no drug": 1, "Outcome": "inactive"}
